The list shows a part of the results.

The record followed here is PMC7819943, “Rice protein-binding microarrays: a tool to detect cis-acting elements near promoter regions in rice”.

The target in the experiment is T1, OsSMF1 (Oryza sativa, UniProt Q6ZLB0 1-436).
T1 sequence: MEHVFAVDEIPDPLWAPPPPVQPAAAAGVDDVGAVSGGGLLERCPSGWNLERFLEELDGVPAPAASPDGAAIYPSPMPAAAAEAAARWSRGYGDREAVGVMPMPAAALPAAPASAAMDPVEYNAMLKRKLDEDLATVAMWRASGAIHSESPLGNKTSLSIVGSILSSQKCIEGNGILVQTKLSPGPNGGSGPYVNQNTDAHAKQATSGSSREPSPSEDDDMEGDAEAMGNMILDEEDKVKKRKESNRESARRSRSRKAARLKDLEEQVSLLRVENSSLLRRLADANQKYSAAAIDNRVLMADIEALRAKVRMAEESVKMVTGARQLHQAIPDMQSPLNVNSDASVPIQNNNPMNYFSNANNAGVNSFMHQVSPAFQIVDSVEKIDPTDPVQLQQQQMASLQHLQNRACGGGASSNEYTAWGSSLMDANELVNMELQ
The experiment can be described thus: protein-binding microarray (RPBM); PBS, 2% BSA, 51.3 ng/ul salmon testes DNA, 50 uM zinc acetate, 200 nM TF, 25 C, 1 h; high values mean tight binding. To be noted: protein: recombinant; tags: N-terminal polyhistidine and DsRed monomer fusion (pET32a); chain copies: 2; label: CyDye5-dUTP incorporated in the synthesized complementary strand; 3' TTTTT single-stranded linker to array surface; dsDNA, one strand shown. In a few lines:
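For the binding signal, per-feature fluorescence intensity was read in arbitrary units on an Axon 4000B scanner. Before scanning, a 2% BSA-blocked custom Agilent array made double-stranded with Cy5-dUTP was washed after 1 h at 25 °C with 200 nM protein and 50 µM zinc acetate. The proteins were Ni–NTA-purified transcription factors with N-terminal polyhistidine and DsRed fusions, expressed in E. coli BL21-CodonPlus.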
As for “CAAGCAATGCAAGGCAAGAGGTAATTGGCCGTGGAATCCACGGAGTCACCTAGTGCAG”, the binding signal was 4720 fluorescence intensity (a.u.).
For “ACGCGGAGGCATCCACGTCGCCCGCGAGCGCTGGGAGGCGCGGAGTCACCTAGTGCAG” the value was 4760 fluorescence intensity (a.u.); for “ACATAATTGTATTATGCAGAACCAAAGCAGGCCACGTGAGCGGAGTCACCTAGTGCAG”, 5470 fluorescence intensity (a.u.).
Under “TATAAACATATGAGAGCTGACATGGAAAGTTACAGGGGCTCGGAGTCACCTAGTGCAG” stands 5410 fluorescence intensity (a.u.).
Under “TTATATACTCCCTCTTTCCACGTAAGTTACATTTATTACTCGGAGTCACCTAGTGCAG” stands 7340 fluorescence intensity (a.u.); under “ATCATTACCTTATGTCTCTAACTCTATGCTTACGTGCTTACGGAGTCACCTAGTGCAG”, 3910 fluorescence intensity (a.u.).
With “GACTTAACGCCGTACGCAGCGGAGGATGGGTGGGTGGGCTCGGAGTCACCTAGTGCAG”, the binding signal was 4040 fluorescence intensity (a.u.).
For “CGCAGGGGTGTGTGTCACACTGTCACCTTTGGCGTGACGGCGGAGTCACCTAGTGCAG” the value was 4620 fluorescence intensity (a.u.).
For the sequence “GATGGCTACCTAGCTGACACGCAACGCCGGCCTCCGGATCCGGAGTCACCTAGTGCAG”, the binding signal was 3570 fluorescence intensity (a.u.).
For “CGCTCAGATCCAACGCACCACGTCGCTCCCACCTCCCTTCCGGAGTCACCTAGTGCAG” the value was 6050 fluorescence intensity (a.u.); for “AATAATGCAACCTTTGCACGTAAGCAACTACTCCCTCCGTCGGAGTCACCTAGTGCAG”, 4610 fluorescence intensity (a.u.); for “AGCATAAAATGTAGGTGAGTCAATTGCGTGTGGCCTTCAACGGAGTCACCTAGTGCAG”, 6740 fluorescence intensity (a.u.).
Under “GAAGCCCTCCACATCGATCGCATCCATCATCCTCATCGTCCGGAGTCACCTAGTGCAG” stands 4630 fluorescence intensity (a.u.).
For “ACATGAGATTTTGAGTGGATGTGATACATCTTAGGACAATCGGAGTCACCTAGTGCAG” the value was 3230 fluorescence intensity (a.u.).
“TGTGCGGGGCCCACCCGGTGACGAGCCTCTCTCTTCCCCTCGGAGTCACCTAGTGCAG”: the binding signal is 3840 fluorescence intensity (a.u.).
For “TGCCATGTAAGCGCCACGTCAATGCCACATGGGACGGAGACGGAGTCACCTAGTGCAG” the value was 10300 fluorescence intensity (a.u.); for “CCACTTGGCGCGGGAACCCGCTCGAGCGGTCGAGCCGGACCGGAGTCACCTAGTGCAG”, 3420 fluorescence intensity (a.u.); for “ACCGGCCCACAACGACCCAGACACTCTCGCCGTCGCCGCCCGGAGTCACCTAGTGCAG”, 3140 fluorescence intensity (a.u.).
Under “CAGAAAAGCAGTTGTGTTTGTCATTGATACAAGTGGAAGCCGGAGTCACCTAGTGCAG” stands 3630 fluorescence intensity (a.u.); under “TTTTACATGATTGGATGACAAAGCCTATTTCGTTTTGTTGCGGAGTCACCTAGTGCAG”, 5400 fluorescence intensity (a.u.).
Under “GTGGGGCCCACGTCGTCGCCGTGGCAGCTAAACACAACTCCGGAGTCACCTAGTGCAG” stands 5540 fluorescence intensity (a.u.); under “GATCCAACACGTGTCCCCTACCCACGACACGTGGCAACCCCGGAGTCACCTAGTGCAG”, 36500 fluorescence intensity (a.u.).
Consider “ATTTTCAACCCCGTCACATGTGACTAGTTATCGGATCGCACGGAGTCACCTAGTGCAG”, for which the binding signal is 4260 fluorescence intensity (a.u.).
For the sequence “GAGAAAGCACACGACCTCCACGATGGAGATGGAGGCACAACGGAGTCACCTAGTGCAG”, the binding signal was 3510 fluorescence intensity (a.u.).
Under “TGCTGATCCATTATTGCTATGCTTGATGCGCATGGGTTGGCGGAGTCACCTAGTGCAG” stands 3340 fluorescence intensity (a.u.); under “ACTGATCACCATCGGTCCCAGTCCCAGTCCAACACTTCCACGGAGTCACCTAGTGCAG”, 36900 fluorescence intensity (a.u.); under “GTGCCGGGCCGGCACGGCTACTGTAGTGGCACGTGGGCTGCGGAGTCACCTAGTGCAG”, 6010 fluorescence intensity (a.u.).
On to “TCGACCTGCCGCGCTGGAGACCGCGGCGTTCATTGGGCTGCGGAGTCACCTAGTGCAG”, for which the binding signal was 18000 fluorescence intensity (a.u.).
With “GGATGGACGCGGAATGCCACCGTAGAACGACGTGACACTGCGGAGTCACCTAGTGCAG”, the binding signal is 4930 fluorescence intensity (a.u.).
Under “ACGCTATCCCGCCGCCGCCGCGTGTCTCCCCAATCCCAATCGGAGTCACCTAGTGCAG” stands 4980 fluorescence intensity (a.u.); under “AACACAGGTGGGGACATCGTATGGTGACAATGAGTCAATGCGGAGTCACCTAGTGCAG”, 3230 fluorescence intensity (a.u.).
Under “AATACAACAAGTTTAGACATACATCTGTCCAGATTCGTTGCGGAGTCACCTAGTGCAG” stands 3490 fluorescence intensity (a.u.).
Under “GGCCTAAACTGGTGTCTGGTGTGGCCCATTAACACTTCAGCGGAGTCACCTAGTGCAG” stands 3740 fluorescence intensity (a.u.); under “TTCCTCTAATTAACGTGTCAGCGGTCTAGGTCACGTAAGACGGAGTCACCTAGTGCAG”, 4430 fluorescence intensity (a.u.); under “GCTTTGCCGTGACGCGTCTCATGTGTTGGGACGAGGCTCACGGAGTCACCTAGTGCAG”, 6790 fluorescence intensity (a.u.).
As to “CAGATTCTGTCCGTGGTTTGGTGAGCTGGACAGCCGTCCACGGAGTCACCTAGTGCAG”, the binding signal was 3190 fluorescence intensity (a.u.).
For “ACAGTCTCCTCTACAAGATACTGAGAACTGCTTCAGTGAGCGGAGTCACCTAGTGCAG” the value was 19800 fluorescence intensity (a.u.); for “TGGGGATGAGACTGAGTGAGGTGGACAGATAAGCTGGGGCCGGAGTCACCTAGTGCAG”, 6020 fluorescence intensity (a.u.); for “ATGACTACTCCTACTCCTAGTAGACGCATCGCTTTCCAATCGGAGTCACCTAGTGCAG”, 3960 fluorescence intensity (a.u.).
For “AGCGCCTTTAATACCGTCGTCACCGATCGGCTTCCGTTTTCGGAGTCACCTAGTGCAG” the value was 5030 fluorescence intensity (a.u.); for “GGCTGCCACGTAACAGTCGGGTTATAGAACTAGTTCTTTGCGGAGTCACCTAGTGCAG”, 6970 fluorescence intensity (a.u.).
For “AAATCTGTATTAAGATGACACATTGCATCAATGTACAAATCGGAGTCACCTAGTGCAG” the value was 4100 fluorescence intensity (a.u.).
